Results are given in words; binding and its absence hold for the method and conditions named. For part of these data: Binding seen in cells or lysates may run through a third protein. Some results given as binding are weak or reduced against the parent protein; the word gives no strength. For part of these data: Where a sequence is shown, tags or fusion partners need not be part of it.
Columns and labels:
[1] = target: T1, isolated SH2 region of p52 Shc (yeast two-hybrid construct) (UniProt P29353); test: yeast two-hybrid with isolated domains
T1 sequence (looked up): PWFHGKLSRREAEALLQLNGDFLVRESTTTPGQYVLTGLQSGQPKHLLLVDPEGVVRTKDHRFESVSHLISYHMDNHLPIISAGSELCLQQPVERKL

By UniProt entry, the sequences of proteins in these tests, tags left out. Where a name states a change or a piece, a line headed by the entry shows the natural chain unless it says otherwise.
UniProt P04386: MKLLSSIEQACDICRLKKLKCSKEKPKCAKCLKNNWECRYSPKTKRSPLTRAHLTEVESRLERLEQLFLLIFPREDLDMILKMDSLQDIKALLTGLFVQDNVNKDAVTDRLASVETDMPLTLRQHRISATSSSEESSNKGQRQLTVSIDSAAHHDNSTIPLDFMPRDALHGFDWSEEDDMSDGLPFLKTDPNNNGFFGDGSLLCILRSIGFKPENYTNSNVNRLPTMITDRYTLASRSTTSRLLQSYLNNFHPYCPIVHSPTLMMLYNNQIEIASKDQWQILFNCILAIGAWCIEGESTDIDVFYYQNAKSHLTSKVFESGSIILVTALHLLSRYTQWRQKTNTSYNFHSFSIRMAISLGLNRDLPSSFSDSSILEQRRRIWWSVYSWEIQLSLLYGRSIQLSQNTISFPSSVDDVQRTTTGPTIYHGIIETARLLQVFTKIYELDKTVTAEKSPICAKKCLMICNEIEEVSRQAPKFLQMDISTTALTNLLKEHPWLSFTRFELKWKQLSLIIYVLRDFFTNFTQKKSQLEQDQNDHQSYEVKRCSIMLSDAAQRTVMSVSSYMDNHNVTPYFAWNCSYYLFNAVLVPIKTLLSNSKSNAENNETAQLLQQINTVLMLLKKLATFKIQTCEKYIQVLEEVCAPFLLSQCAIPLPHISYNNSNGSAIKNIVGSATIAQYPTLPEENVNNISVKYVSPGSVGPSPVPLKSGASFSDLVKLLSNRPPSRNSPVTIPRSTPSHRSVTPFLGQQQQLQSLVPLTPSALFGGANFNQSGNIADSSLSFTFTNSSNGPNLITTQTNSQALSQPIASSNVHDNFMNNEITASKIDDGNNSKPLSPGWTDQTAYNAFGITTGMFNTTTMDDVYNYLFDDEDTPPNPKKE

[2] = target: GAL4-Shc hybrid fusion protein (full length human p52 Shc fused to the DNA binding domain of GAL4, pAS-1) (yeast; human) (UniProt P04386+P29353); test: yeast two-hybrid, full length p52 Shc as bait
[3] = target: T2, mPAL (amino acids 11 to 648) expressed in 293T cells from pcDNA3.1-mPAL (mouse) (UniProt Q9Z179); test: GST pull-down, anti-mPAL immunoblot
T2 sequence: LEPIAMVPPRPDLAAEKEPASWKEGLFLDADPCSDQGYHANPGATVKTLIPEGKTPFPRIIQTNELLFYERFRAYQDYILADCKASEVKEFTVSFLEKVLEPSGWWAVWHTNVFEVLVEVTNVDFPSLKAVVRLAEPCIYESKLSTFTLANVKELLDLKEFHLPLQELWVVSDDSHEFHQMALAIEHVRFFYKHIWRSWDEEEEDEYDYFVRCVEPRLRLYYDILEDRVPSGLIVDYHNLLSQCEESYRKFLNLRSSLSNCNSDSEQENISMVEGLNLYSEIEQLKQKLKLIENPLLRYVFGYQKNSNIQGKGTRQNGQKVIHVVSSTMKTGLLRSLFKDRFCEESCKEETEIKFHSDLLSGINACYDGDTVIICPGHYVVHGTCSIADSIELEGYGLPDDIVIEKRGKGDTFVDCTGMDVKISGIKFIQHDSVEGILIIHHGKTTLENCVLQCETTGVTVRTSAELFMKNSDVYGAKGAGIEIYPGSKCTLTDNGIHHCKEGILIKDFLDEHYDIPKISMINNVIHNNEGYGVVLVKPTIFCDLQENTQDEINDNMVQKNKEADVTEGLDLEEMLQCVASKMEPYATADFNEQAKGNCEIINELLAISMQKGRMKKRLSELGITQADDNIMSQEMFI

[4] = target: T2, mPAL (amino acids 11 to 648) expressed in 293T cells from pcDNA3.1-mPAL (mouse); test: GST pull-down from pcDNA3.1-mPAL-transfected 293T lysate, anti-PAL immunoblot
[5] = target: T2, mPAL (amino acids 11 to 648) expressed in 293T cells from pcDNA3.1-mPAL (mouse); test: GST pull-down
[6] = target: T2, mPAL (amino acids 11 to 648) expressed in 293T cells from pcDNA3.1-mPAL (mouse); test: GST pull-down from 293T-mPAL lysate with a panel of GST-SH2 fusions
[7] = target: T2, mPAL (amino acids 11 to 648) expressed in 293T cells from pcDNA3.1-mPAL (mouse); test: GST pull-down, 2.5 µg GST-Shc SH2 with 293T-mPAL lysate and 10, 50 and 100 mM free phosphoamino acids
[8] = target: T2, mPAL (amino acids 11 to 648) expressed in 293T cells from pcDNA3.1-mPAL (mouse); test: GST pull-down from cell lysate with 10, 50 and 100 mM free phosphoamino acids
[9] = target: T3, p46 Shc expressed in 293T cells from pECE-Shc (human) (UniProt P29353); test: co-immunoprecipitation from co-transfected 293T cells, anti-mPAL IP, anti-Shc immunoblot
T3 sequence (looked up): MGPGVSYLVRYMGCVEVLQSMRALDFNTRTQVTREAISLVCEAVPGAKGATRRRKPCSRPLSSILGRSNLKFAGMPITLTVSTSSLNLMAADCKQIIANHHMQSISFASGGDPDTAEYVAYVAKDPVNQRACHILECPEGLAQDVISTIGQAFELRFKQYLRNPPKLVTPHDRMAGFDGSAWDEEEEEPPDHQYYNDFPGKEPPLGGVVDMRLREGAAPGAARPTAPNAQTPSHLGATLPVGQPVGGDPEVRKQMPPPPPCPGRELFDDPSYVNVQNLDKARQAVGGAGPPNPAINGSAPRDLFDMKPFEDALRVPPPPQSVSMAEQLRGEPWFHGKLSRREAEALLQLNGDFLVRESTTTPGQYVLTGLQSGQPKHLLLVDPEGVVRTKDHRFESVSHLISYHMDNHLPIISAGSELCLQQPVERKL

[10] = target: T4, human p52 Shc expressed in 293T cells from pECE-Shc (human) (UniProt P29353); test: as above
T4 sequence (looked up): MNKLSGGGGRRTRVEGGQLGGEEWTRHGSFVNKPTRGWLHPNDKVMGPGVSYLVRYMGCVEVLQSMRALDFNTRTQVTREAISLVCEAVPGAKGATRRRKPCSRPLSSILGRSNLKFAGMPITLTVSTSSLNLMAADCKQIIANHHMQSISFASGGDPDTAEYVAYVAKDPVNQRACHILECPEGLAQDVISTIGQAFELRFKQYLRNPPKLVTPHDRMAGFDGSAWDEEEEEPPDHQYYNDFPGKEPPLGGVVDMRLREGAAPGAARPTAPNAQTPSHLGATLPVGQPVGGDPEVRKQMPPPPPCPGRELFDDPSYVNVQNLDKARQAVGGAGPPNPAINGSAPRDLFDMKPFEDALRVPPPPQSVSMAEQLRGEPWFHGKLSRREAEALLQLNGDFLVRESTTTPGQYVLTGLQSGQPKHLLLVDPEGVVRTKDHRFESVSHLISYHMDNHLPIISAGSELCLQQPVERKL

[11] = target: T2, mPAL (amino acids 11 to 648) expressed in 293T cells from pcDNA3.1-mPAL (mouse); test: co-immunoprecipitation from co-transfected 293T cells, anti-Shc IP, anti-mPAL immunoblot
[12] = target: T5, endogenous Shc of murine cells (NIH 3T3 lysate, primary T cells) (mouse) (UniProt P98083); test: GST pull-down, 10 µg fusion protein with about 1 mg NIH-3T3 lysate, anti-Shc immunoblot
T5 sequence (looked up): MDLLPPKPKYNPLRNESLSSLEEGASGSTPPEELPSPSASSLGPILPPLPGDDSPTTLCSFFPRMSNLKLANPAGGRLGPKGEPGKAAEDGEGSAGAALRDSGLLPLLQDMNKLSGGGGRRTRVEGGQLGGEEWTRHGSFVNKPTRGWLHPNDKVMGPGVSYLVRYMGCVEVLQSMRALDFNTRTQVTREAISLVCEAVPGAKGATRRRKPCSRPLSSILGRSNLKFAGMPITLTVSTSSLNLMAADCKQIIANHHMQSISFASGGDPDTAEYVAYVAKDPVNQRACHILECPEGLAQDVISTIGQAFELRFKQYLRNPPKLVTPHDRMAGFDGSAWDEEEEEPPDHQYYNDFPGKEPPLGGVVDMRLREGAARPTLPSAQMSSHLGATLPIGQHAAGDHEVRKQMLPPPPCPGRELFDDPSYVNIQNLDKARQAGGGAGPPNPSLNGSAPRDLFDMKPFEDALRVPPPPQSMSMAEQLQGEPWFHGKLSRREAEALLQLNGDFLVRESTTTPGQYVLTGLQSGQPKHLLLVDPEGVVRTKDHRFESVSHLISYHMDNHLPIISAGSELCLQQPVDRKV

B1: mPAL cDNA clone from the yeast two-hybrid screen, fused to the GAL4 transcription activation domain (protein, not shown: large carriers)
chain: MVPPRPDLAAEKEPASWKEGLFLDADPCSDQGYHANPGATVKTLIPEGKTPFPRIIQTNELLFYERFRAYQDYILADCKASEVKEFTVSFLEKVLEPSGWWAVWHTNVFEVLVEVTNVDFPSLKAVVRLAEPCIYESKLSTFTLANVKELLDLKEFHLPLQELWVVSDDSHEFHQMALAIEHVRFFYKHIWRSWDEEEEDEYDYFVRCVEPRLRLYYDILEDRVPSGLIVDYHNLLSQCEESYRKFLNLRSSLSNCNSDSEQENISMVEGLNLYSEIEQLKQKLKLIENPLLRYVFGYQKNSNIQGKGTRQNGQKVIHVVSSTMKTGLLRSLFKDRFCEESCKEETEIKFHSDLLSGINACYDGDTVIICPGHYVVHGTCSIADSIELEGYGLPDDIVIEKRGKGDTFVDCTGMDVKISGIKFIQHDSVEGILIIHHGKTTLENCVLQCETTGVTVRTSAELFMKNSDVYGAKGAGIEIYPGSKCTLTDNGIHHCKEGILIKDFLDEHYDIPKISMINNVIHNNEGYGVVLVKPTIFCDLQENTQDEINDNMVQKNKEADVTEGLDLEEMLQCVASKMEPYATADFNEQAKGNCEIINELLAISMQKGRMKKRLSELGITQADDNIMSQEMFIEIMGNQFKWNGKGSFGTFLY
B1 was tested, and the binding [1] was “binds” and the binding [2] was “binds”.

B2: GST-Shc SH2 domain fusion protein (protein, UniProt P29353-2 378-469, looked up, not shown: a dimerising Fc or GST)
chain: WFHGKLSRREAEALLQLNGDFLVRESTTTPGQYVLTGLQSGQPKHLLLVDPEGVVRTKDHRFESVSHLISYHMDNHLPIISAGSELCLQQPV
In the case of B2, the binding [3] is reported as “binds”, the binding [4] is reported as “binds” and the binding [5] is reported as “binds”. The binding [6] was “binds”, the binding [7] was “binds” and the binding [8] was “binds”.

B3: mPAL (amino acids 11 to 648) expressed in 293T cells from pcDNA3.1-mPAL (protein)
chain: LEPIAMVPPRPDLAAEKEPASWKEGLFLDADPCSDQGYHANPGATVKTLIPEGKTPFPRIIQTNELLFYERFRAYQDYILADCKASEVKEFTVSFLEKVLEPSGWWAVWHTNVFEVLVEVTNVDFPSLKAVVRLAEPCIYESKLSTFTLANVKELLDLKEFHLPLQELWVVSDDSHEFHQMALAIEHVRFFYKHIWRSWDEEEEDEYDYFVRCVEPRLRLYYDILEDRVPSGLIVDYHNLLSQCEESYRKFLNLRSSLSNCNSDSEQENISMVEGLNLYSEIEQLKQKLKLIENPLLRYVFGYQKNSNIQGKGTRQNGQKVIHVVSSTMKTGLLRSLFKDRFCEESCKEETEIKFHSDLLSGINACYDGDTVIICPGHYVVHGTCSIADSIELEGYGLPDDIVIEKRGKGDTFVDCTGMDVKISGIKFIQHDSVEGILIIHHGKTTLENCVLQCETTGVTVRTSAELFMKNSDVYGAKGAGIEIYPGSKCTLTDNGIHHCKEGILIKDFLDEHYDIPKISMINNVIHNNEGYGVVLVKPTIFCDLQENTQDEINDNMVQKNKEADVTEGLDLEEMLQCVASKMEPYATADFNEQAKGNCEIINELLAISMQKGRMKKRLSELGITQADDNIMSQEMFI
In the case of B3, the binding [9] is reported as “binds” and the binding [10] is reported as “binds”.

B4: human p52 Shc expressed in 293T cells from pECE-Shc (protein, UniProt P29353-2 1-473, looked up)
chain: MNKLSGGGGRRTRVEGGQLGGEEWTRHGSFVNKPTRGWLHPNDKVMGPGVSYLVRYMGCVEVLQSMRALDFNTRTQVTREAISLVCEAVPGAKGATRRRKPCSRPLSSILGRSNLKFAGMPITLTVSTSSLNLMAADCKQIIANHHMQSISFASGGDPDTAEYVAYVAKDPVNQRACHILECPEGLAQDVISTIGQAFELRFKQYLRNPPKLVTPHDRMAGFDGSAWDEEEEEPPDHQYYNDFPGKEPPLGGVVDMRLREGAAPGAARPTAPNAQTPSHLGATLPVGQPVGGDPEVRKQMPPPPPCPGRELFDDPSYVNVQNLDKARQAVGGAGPPNPAINGSAPRDLFDMKPFEDALRVPPPPQSVSMAEQLRGEPWFHGKLSRREAEALLQLNGDFLVRESTTTPGQYVLTGLQSGQPKHLLLVDPEGVVRTKDHRFESVSHLISYHMDNHLPIISAGSELCLQQPVERKL
B4 was tested, and the binding [11] was “binds”.

B5: GST-mPAL fusion protein (PAL amino acids 11 to 648 in pGEX4T3) (protein, not shown: a dimerising Fc or GST)
chain: LEPIAMVPPRPDLAAEKEPASWKEGLFLDADPCSDQGYHANPGATVKTLIPEGKTPFPRIIQTNELLFYERFRAYQDYILADCKASEVKEFTVSFLEKVLEPSGWWAVWHTNVFEVLVEVTNVDFPSLKAVVRLAEPCIYESKLSTFTLANVKELLDLKEFHLPLQELWVVSDDSHEFHQMALAIEHVRFFYKHIWRSWDEEEEDEYDYFVRCVEPRLRLYYDILEDRVPSGLIVDYHNLLSQCEESYRKFLNLRSSLSNCNSDSEQENISMVEGLNLYSEIEQLKQKLKLIENPLLRYVFGYQKNSNIQGKGTRQNGQKVIHVVSSTMKTGLLRSLFKDRFCEESCKEETEIKFHSDLLSGINACYDGDTVIICPGHYVVHGTCSIADSIELEGYGLPDDIVIEKRGKGDTFVDCTGMDVKISGIKFIQHDSVEGILIIHHGKTTLENCVLQCETTGVTVRTSAELFMKNSDVYGAKGAGIEIYPGSKCTLTDNGIHHCKEGILIKDFLDEHYDIPKISMINNVIHNNEGYGVVLVKPTIFCDLQENTQDEINDNMVQKNKEADVTEGLDLEEMLQCVASKMEPYATADFNEQAKGNCEIINELLAISMQKGRMKKRLSELGITQADDNIMSQEMFI
B5 was tested, and the binding [12] was “binds”.
